Assay results from publication PMC8980529, “Complement Factor H-Related Proteins FHR1 and FHR5 Interact With Extracellular Matrix Ligands, Reduce Factor H Regulatory Activity and Enhance Complement Activation” (Frontiers in Immunology, 2022).
No constants are given. Whether binding was seen depends on the method and setting. A result given as binding can be weak or reduced; the word gives no strength.

Key:
[1] = molecular target: T1, Recombinant human factor H-related protein 5 (human) (UniProt Q9BXR6); assay: ELISA; FHR5, CCPs 1-4, CCPs 3-7, CCPs 8-9 and HSA immobilised at 5 µg/ml, blocked with 4% BSA; 20 µg/ml C3b, iC3b, C3c or 10 µg/ml C3d added; detected with anti-human C3 or anti-human C3d; both purified
T1 sequence: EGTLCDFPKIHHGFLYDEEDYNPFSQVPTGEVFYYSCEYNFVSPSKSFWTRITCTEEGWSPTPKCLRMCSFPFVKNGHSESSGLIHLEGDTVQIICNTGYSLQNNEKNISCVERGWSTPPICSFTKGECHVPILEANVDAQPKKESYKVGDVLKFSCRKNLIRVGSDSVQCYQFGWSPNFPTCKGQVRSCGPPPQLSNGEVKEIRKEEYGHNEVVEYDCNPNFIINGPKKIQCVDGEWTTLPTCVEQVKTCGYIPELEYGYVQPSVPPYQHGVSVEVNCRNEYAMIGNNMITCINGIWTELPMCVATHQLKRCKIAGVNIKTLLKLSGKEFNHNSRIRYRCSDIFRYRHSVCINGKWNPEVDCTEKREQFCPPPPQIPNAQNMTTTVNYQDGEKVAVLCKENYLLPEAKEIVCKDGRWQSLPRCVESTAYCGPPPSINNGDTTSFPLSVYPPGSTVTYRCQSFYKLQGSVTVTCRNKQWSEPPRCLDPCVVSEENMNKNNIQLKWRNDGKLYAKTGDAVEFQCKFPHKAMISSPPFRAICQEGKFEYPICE

Osteoadherin = molecular target: T2, Osteoadherin (UniProt Q99983); assay: ELISA; ECM proteins immobilised (10 µg/ml), incubated with FHR5 and its fragments CCPs 1-4, CCPs 3-7, CCPs 8-9 in equimolar concentrations (100 nM or 200 nM); detected with goat anti-human FHR5; both purified
T2 sequence: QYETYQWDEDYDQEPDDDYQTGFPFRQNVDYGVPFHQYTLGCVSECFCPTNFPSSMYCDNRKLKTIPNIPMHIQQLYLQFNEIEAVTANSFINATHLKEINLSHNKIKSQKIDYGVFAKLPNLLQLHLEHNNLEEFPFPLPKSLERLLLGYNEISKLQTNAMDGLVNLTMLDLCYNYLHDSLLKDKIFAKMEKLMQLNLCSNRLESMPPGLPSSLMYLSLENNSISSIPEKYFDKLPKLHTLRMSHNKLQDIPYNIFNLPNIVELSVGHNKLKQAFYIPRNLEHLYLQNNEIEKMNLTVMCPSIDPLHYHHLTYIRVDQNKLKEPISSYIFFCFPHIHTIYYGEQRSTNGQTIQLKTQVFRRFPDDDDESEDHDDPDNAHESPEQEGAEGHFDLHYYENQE

Fibromodulin = molecular target: T3, Fibromodulin (UniProt Q06828); assay: as above
T3 sequence: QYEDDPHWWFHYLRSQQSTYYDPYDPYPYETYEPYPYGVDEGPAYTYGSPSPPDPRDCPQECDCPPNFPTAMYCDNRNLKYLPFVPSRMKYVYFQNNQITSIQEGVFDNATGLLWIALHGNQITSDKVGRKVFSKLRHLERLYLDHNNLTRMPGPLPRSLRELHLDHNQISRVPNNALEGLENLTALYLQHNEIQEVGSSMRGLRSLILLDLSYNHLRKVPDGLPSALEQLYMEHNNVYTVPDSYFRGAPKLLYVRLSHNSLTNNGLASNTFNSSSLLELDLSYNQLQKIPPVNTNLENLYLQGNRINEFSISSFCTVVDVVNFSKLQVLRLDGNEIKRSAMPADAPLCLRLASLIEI

[2] = molecular target: T4, Proline/arginine-rich end leucine-rich repeat protein (UniProt P51888); assay: as above
T4 sequence: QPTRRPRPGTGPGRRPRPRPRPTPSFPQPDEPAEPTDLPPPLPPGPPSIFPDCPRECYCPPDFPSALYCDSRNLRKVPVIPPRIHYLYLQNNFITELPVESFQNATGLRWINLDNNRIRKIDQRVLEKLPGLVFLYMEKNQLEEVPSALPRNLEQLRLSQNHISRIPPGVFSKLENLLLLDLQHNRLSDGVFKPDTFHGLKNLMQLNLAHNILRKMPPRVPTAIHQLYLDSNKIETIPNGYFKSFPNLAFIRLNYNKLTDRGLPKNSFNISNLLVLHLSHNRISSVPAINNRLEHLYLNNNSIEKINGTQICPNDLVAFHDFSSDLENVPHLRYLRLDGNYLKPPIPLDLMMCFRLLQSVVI

Row | Substance | binding [1] | binding (Osteoadherin) | binding (Fibromodulin) | binding [2]
1 | Purified human iC3b | binds |  |  | 
2 | Recombinant human FHR5 fragment CCPs 1-4 (domain or fragment) |  | no binding (tested: 100 nM) | no binding (tested: 100 nM) | no binding (tested: 200 nM)
3 | Recombinant human FHR5 fragment CCPs 3-7 (domain or fragment) |  | binds | binds | binds
4 | Recombinant human FHR5 fragment CCPs 8-9 (domain or fragment) |  | no binding (tested: 100 nM) | no binding (tested: 100 nM) | no binding (tested: 200 nM)
